Experimental data reported in US20030055003A1, “Use of copper chelators to inhibit the inactivation of protein C” (priority 2001, published 2003).
At least one peptide structure holds a part that was inferred or is arguable (an end, a ring closure or a residue). Where a SMILES comes first, the peptide text is derived from it.

Experiment: Mass spectrometry metal binding

C[C@H](NC(=O)[C@@H](N)CC(=O)O)C(=O)N[C@@H](Cc1c[nH]cn1)C(=O)N[C@@H](CCCCN)C(=O)O [Asp Ala His Lys] (H-DAHK-OH; N-terminus and C-terminus assumed)
binding of Fe(II) by mass spectrometry: bind Fe(II)
